# Screening data, single-dose tests

Values are the deposited “Percent Effect”, in %.
How 0% and 100% were set is not recorded. Most values in the screen are low, and negative values occur.
This is an unselected part of the compounds tested.

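Whole-cell growth test on Mycobacterium tuberculosis, read after 3 days in glucose-containing 7H9 medium; the read-out is not stated. Compounds at 500 µM. Higher reads as more growth inhibition (inferred: compounds with an IC50 in retests scored well above the rest). Size under these conditions: about 18,000 compounds, about 1,400 of them at 50% or above in at least one test.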

{"compound": "CN1N=C(C(=O)NC2CCc3nccn3C2)CCC1=O", "stereo": "stereo not given", "percent effect": 2.556}
{"compound": "CC(CN1CCOCC1)NC(=O)c1csc(Br)c1", "stereo": "stereo not given", "percent effect": 51.59}
{"compound": "COc1cccc(CCN)n1", "percent effect": 74.52}
{"compound": "NCC1CCN(c2cnn(CC3CCC3)c(=O)c2)CC1", "percent effect": 37.59}
{"compound": "CNC(=O)c1cc(=O)[nH]c2c(Br)cccc12", "percent effect": 22.9}
{"compound": "Nc1noc(-c2ccc(Cl)cc2)n1", "percent effect": -0.09351}
{"compound": "CC(CN)c1ccc(F)cc1", "stereo": "stereo not given", "percent effect": 3.751}
{"compound": "NC(=O)NCC1CCCN1", "stereo": "stereo not given", "percent effect": 0.09252}
{"compound": "CC(C)(C)OC(=O)N[C@@H]1CCCNC1", "percent effect": -2.836}
{"compound": "CCN(C)C(=O)CCN(Cc1cnn(C)c1)C(C)C", "percent effect": -1.763}
{"compound": "Cc1nn(C)cc1C(=O)N1C[C@@H](CO)[C@H](N(C)C)C1", "percent effect": 1.914}
{"compound": "O=C(NCC1(O)CCOC1)c1coc2ccccc12", "stereo": "stereo not given", "percent effect": 15.39}
{"compound": "Cc1ccccc1OCCN1CCC(C(N)=O)CC1", "percent effect": -10.03}
{"compound": "NC(=O)CC1CCN(Cc2ccccc2F)CC1", "percent effect": -5.75}
{"compound": "CCc1cc(C(=O)NC(CC)[C@H]2C[C@H](O)C2)cc(=O)[nH]1", "stereo": "stereo not given in full", "percent effect": -5.465}
{"compound": "CC1(N)CCOCC1", "percent effect": -16.55}
{"compound": "OC1(c2cccc(OC(F)(F)F)c2)CCNCC1", "percent effect": 23.26}
{"compound": "C[C@@H]1CNC(=O)C[C@H](C)O1", "percent effect": -10.81}
{"compound": "CN1CCCN(C(=O)c2ccc3ccccc3n2)CC1", "percent effect": 18.23}
{"compound": "COc1cccc(CC(=O)N2CCNCC2)c1", "percent effect": 0.6799}
{"compound": "O=C(Nc1ccccn1)N1CCCN(C2CC2)CC1", "percent effect": 13.55}
{"compound": "NC(=O)C1CCN(CCSc2ccccc2)CC1", "percent effect": 20.96}
{"compound": "CCc1cc(=O)[nH]c(C(C)(N)CC)n1", "stereo": "stereo not given", "percent effect": -1.44}
{"compound": "CN(C)c1cccc(C(=O)Nc2cnns2)c1", "percent effect": 30.35}
{"compound": "COc1ccc(OC)c(NC(=O)N2CC(C)(OC)C2)c1", "percent effect": 18.31}
{"compound": "Cc1ccc2c(n1)OCCN2C(=O)C1CCOCC1", "percent effect": -2.532}
{"compound": "CC1(C)Cc2cccc(OCCN)c2O1", "percent effect": 24.67}
{"compound": "CC(=O)N(C)CC(=O)Nc1ccccc1N1CCCC1", "percent effect": -3.638}
{"compound": "COCCOc1ccc(CN)cn1", "percent effect": 10.9}
{"compound": "O=C(c1ccc2c(c1)OCCO2)C1CCNCC1", "percent effect": 20.82}
{"compound": "CNC(=O)C1CN(C(=O)Nc2cccc(C)c2)CCO1", "stereo": "stereo not given", "percent effect": 4.856}
{"compound": "CCn1ccc(NC(=O)C2CCCC2)n1", "percent effect": 28.44}
{"compound": "COCC(C)NC(=O)CSc1nc(N)c2ccsc2n1", "stereo": "stereo not given", "percent effect": 20.2}
{"compound": "FC(F)(F)c1ccc(OC2CCNCC2)nc1", "percent effect": 71.06}
{"compound": "CCn1cnnc1C1CNCCO1", "stereo": "stereo not given", "percent effect": 0.5006}
{"compound": "CC(C)(C)OC(=O)N1CCCC(CN)C1", "stereo": "stereo not given", "percent effect": 21.46}
{"compound": "CSCC[C@H](N)C(=O)N(C)Cc1ncc(Cl)n1C", "percent effect": 13.16}
{"compound": "CCN(C(=O)CSc1ccncc1)[C@H]1COC[C@@H]1O", "percent effect": -5.523}
{"compound": "CN(CC1(C)CCOCC1)C(=O)c1ccco1", "percent effect": 31.44}
{"compound": "c1ccc2c(c1)COC21CCNC1", "stereo": "stereo not given", "percent effect": -5.368}
{"compound": "Cc1n[nH]c(SCCNC(=O)COCC2CCCO2)n1", "stereo": "stereo not given", "percent effect": 3.467}
{"compound": "CCCN(CC1CC1)S(=O)(=O)N1CC[C@@H](O)C1", "percent effect": 31.76}
{"compound": "NC(c1ccncc1)C1(CO)CCC1", "stereo": "stereo not given", "percent effect": -4.188}
{"compound": "O=C(Cn1c(=O)[nH]c(=O)c2ccccc21)NC1CC1", "percent effect": -8.597}
{"compound": "Cc1cc(C(=O)NCC(=O)NC2CC2)c(C)o1", "percent effect": 7.863}
{"compound": "CNCc1nc2c(s1)CCCC2", "percent effect": 58.46}
{"compound": "COc1ccc(CNC(=O)CC2CCNC2)c(OC)c1", "stereo": "stereo not given", "percent effect": 31.88}

Source: ChEMBL document CHEMBL3988442, “University of Dundee, Small-Polar-MMV Screening Library” (2021).